Reference: patent US20250353835A1, “N-TETRAZOLYL ARYL UREA-BASED DERIVATIVES, PREPARATION METHOD THEREFOR, AND USE THEREOF” (Hangzhou Yirui Pharmaceutical Technology Co., Ltd, priority 2022, published 2025)

Tested on: rat model of diabetic retinopathy
Assay: Rat model of diabetic retinopathy (STZ)
Type: in vivo, Wistar rats
Conditions: 14 days after intravitreal injection, compounds 0.25%, dexamethasone 0.1%
Experimental: 3.1 Laboratory animals: SPF-grade male Wistar rats, weighed 180-220 g.
3.3 Animal modeling and grouping: After one week of adaptive feeding, 134 male Wistar rats (weighed 220-260 g) were administered 65 mg/kg of STZ by one-time intraperitoneal injection to prepare a rat model of type I diabetic. The rats were fasting but water was allowable overnight for 15 h. The formulated STZ solution was intraperitoneally injected according to body weight. After 1 h, the diet was resumed and blood glucose was measured at 72 h. The successfully modeled diabetic rats (120 rats) were selected for continued feeding, and randomly divided into the following 6 groups according to blood glucose (20 rats per group), plus a group of normal rats with no STZ injected as a negative control group.
3.4 Administration: The rats continued to be fed until blood glucose was measured once before administration. After blood glucose reached the standard, drugs were intravitreally injected, and indexs were subsequently tested after 14 days. Blood glucose was measured once before sampling.
3.5 Evans blue staining method (7 groups, 6 rats per group): Evans blue was intravenously injected. 2 hours later, normal saline was perfused into the left ventricle. The retina was taken to compare between the stained area and the unstained area to detect retinal vascular permeability.
3.6 Retinal leukocyte stasis detection method (7 groups, 6 rats per group): PBS was perfused into the left ventricle for 1 min to remove red blood cells and other substances. Concanavalin A (FITC (Sigma, C7642) was perfused (20 μg/ml in PBS, 5 mg/kg) to mark adherent leukocytes. 4% PFA was perfused for 4 min for fixation. 1% Albumin (Sigma, A6414) (in PBS) was perfused for 1 min, and then PBS was perfused for 2 min. The retina was taken for retinal wholemount. Thereafter, the stasis of leukocytes on the vascular endothelium was observed under a fluorescence microscope. […]

COc1ccc(-c2ccc(NC(=O)N(C)[C@H]3CC[C@H](C(C)(C)C)CC3)cc2-c2nn[nH]n2)cc1OC [Compound 65, 1-((trans)-4-(tert-butyl)cyclohexyl)-3-(3′,4′-dimethoxy-2-(2H-tetrazol-5-yl)-[1,1′-biphenyl]-4-yl)-1-methylurea]
Blood glucose concentration of the rats in Batch 1 (mmol/L), before sampling: 19.15 ± 1.25 mmol/L | Blood glucose concentration of the rats in Batch 2 (mmol/L), before sampling: 18.27 ± 1.98 mmol/L

CCOc1ccc(-c2ccc(NC(=O)N[C@H]3CC[C@H](C)CC3)cc2-c2nn[nH]n2)cn1 [Compound 71, 1-(4-(6-ethoxypyrid-3-yl)-3-(2H-tetrazol-5-yl)phenyl)-3-((trans)-4-methylcyclohexyl)urea]
Blood glucose concentration of the rats in Batch 1 (mmol/L), before sampling: 19.52 ± 1.07 mmol/L | Blood glucose concentration of the rats in Batch 2 (mmol/L), before sampling: 18.53 ± 1.93 mmol/L

COc1ccc(-c2c(F)cc(NC(=O)N3CCC(C(C)(C)C)CC3)cc2-c2nn[nH]n2)cc1OC [Compound 11, 4-(tert-butyl)-N-(2-fluoro-3′,4′-dimethoxy-6-(2H-tetrazol-5-yl)-[1,1′-biphenyl]-4-yl)piperidine-1-carboxamide]
Blood glucose concentration of the rats in Batch 1 (mmol/L), before sampling: 19.02 ± 1.50 mmol/L | Blood glucose concentration of the rats in Batch 2 (mmol/L), before sampling: 18.57 ± 1.41 mmol/L

CCOc1ccc(-c2c(F)cc(NC(=O)N3CCC(C(C)(C)C)CC3)cc2-c2nn[nH]n2)cn1 [Compound 8, 4-(tert-butyl)-N-(4-(6-ethoxypyrid-3-yl)-3-fluoro-5-(2H-tetrazol-5-yl)phenyl)piperidine-1-carboxamide]
Blood glucose concentration of the rats in Batch 1 (mmol/L), before sampling: 19.03 ± 1.51 mmol/L | Blood glucose concentration of the rats in Batch 2 (mmol/L), before sampling: 18.56 ± 1.40 mmol/L
